Values from PubChem BioAssay AID1259254 (NCATS, 2017)
Shown is one part, drawn at random, of about 59,000 deposited reagents. Of all reagents, about 1,550 (2.6%) got an active call. 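G2 share is only a proxy for re-replication; each gene was hit by three separate siRNAs, and active genes were retested.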 A number with no mark means an inactive call. The numbers tell different reagents against one gene apart. Further read-outs or replicates are left out here. Not stated in the record: the amount of reagent.

Assay: 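Finding genes that stop cells copying their DNA twice in one cycle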 (primary screen)
Cell system: human HCT116 colorectal cancer cells
Knock-down reagent: single siRNA against human genes
Duration: 3 days
Read-out: 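Imaged Hoechst DNA stain sorts each cell into a cycle phase by DNA amount; per plate, G2 fraction set to 0% for non-targeting and 100% for GMNN siRNA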
Scale: G2 robust z-score: higher = more G2 cells, more excess DNA replication
Rule for the call: 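An siRNA counts as active if its G2 robust z-score lies at least 5 MADs above the screen median; here such calls match roughly 38% of GMNN control or more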

With ACSM5 #1, what was measured?
G2 robust z-score: 0.709

With ACSM5 #2, how do the results read?
G2 robust z-score: -0.569

How did the screen score ACSM5 #3?
G2 robust z-score: -0.548

What is on record for PHF21A #1?
G2 robust z-score: -1.3

What is on record for PHF21A #2?
G2 robust z-score: -1.08

With PHF21A #3, what does the deposit list?
G2 robust z-score: 2.42

With RPL31P31 #1, how do the results read?
G2 robust z-score: 1.38

With RPL31P31 #2, what was measured?
G2 robust z-score: -0.221

Which result is listed for RPL31P31 #3?
G2 robust z-score: 2.68

With NHLH1 #1, how do the results read?
G2 robust z-score: -0.897

With NHLH1 #2, how do the results read?
G2 robust z-score: 1.92

What did the screen give for NHLH1 #3?
G2 robust z-score: -0.078

For NINJ1 #1, what was measured?
G2 robust z-score: -1.17

How did the screen score NINJ1 #2?
G2 robust z-score: 2.93

How did the screen score NINJ1 #3?
G2 robust z-score: -0.265

What did the screen give for PIK3R6 #1?
G2 robust z-score: 3.21

How did the screen score PIK3R6 #2?
G2 robust z-score: 0.502

How did the screen score PIK3R6 #3?
G2 robust z-score: -0.696

For SCO2 #1, what was measured?
G2 robust z-score: -0.514

What did the screen give for SCO2 #2?
G2 robust z-score: -0.379

What is on record for SCO2 #3?
G2 robust z-score: -0.242

With TEKT4P2 #1, what was measured?
G2 robust z-score: 0.766

For TEKT4P2 #2, what was measured?
G2 robust z-score: 1.83

How did the screen score TEKT4P2 #3?
G2 robust z-score: 2.78

Part of the list above in another layout:
gene	siRNA no.	G2 robust z-score
PIK3R6	1	3.21
PIK3R6	2	0.502
